As usually defined, the AC50 is the midpoint of the concentration-response curve, whichever way the signal moves.

The list shows a part of the results. These are further read-outs of the screen, such as a control signal, another cell line or another target. No call is given for them. The list favours compounds with an active or inconclusive main result. Words in brackets tell the shape of the fitted curve; partial curves, single points and poor fits give uncertain potencies.

From PubChem BioAssay AID2685 (National Center for Advancing Translational Sciences (NCATS), 2010) come the findings set out here.

This test is described as follows: qHTS Assay for Lipid Storage Modulators in Drosophila S3 Cells.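 For cell number change: cells counted by Cell Tracker Red CMTPX staining in the red channel.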 The settings on record: BODIPY lipid droplet fluorescence, 18-24 h; for cell number change: measured here: cell count max response, cells fed with added oleic acid. The method, boiled down: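 Laser-scanning cytometry quantifies lipid droplet accumulation (500–530 nm total intensity; droplet/cell object ratio) in oleic acid-fed (400 uM added) Drosophila S3 cells treated with a concentration series. 20 uM Triacsin C defined 100% inhibition.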
A general note: In qHTS, concentration-response curves come from the screen itself.

[1] abbreviates: measured here: lipid fluorescence (Fed channel) AC50, cells fed with added oleic acid.
[2] abbreviates: measured here: cell number channel AC50, cells fed with added oleic acid.

Take `CC(C)CN1C(=O)c2ccccc2C1(O)Cc1ccccc1` (stereo not drawn): the cell number change is -16.6%. Moreover, the AC50 under setting [1] is 32.6 µM [falling, partial curve, poor fit].
For `O=C(N/N=C/c1sc2ccccc2c1O)c1ccccc1`, the cell number change was -24%. For the same compound, the AC50 under setting [1] was 13 µM [falling, partial curve].
For the compound `CC(C)(C)NC(=O)COC(=O)c1cc(F)c(F)cc1Cl`, the AC50 under setting [1] is 0.82 µM [falling, single point].
As for `CCOC(=O)c1c(C)[nH]c(C)c1C(=O)COC(=O)c1ccc(S(=O)(=O)N(CC)CC)cc1`, the cell number change is -5.13%. The AC50 under setting [1] is 0.0058 µM [falling, full curve, poor fit].
On to `Cc1ccc(C(=O)Nc2cccc(C(=O)N3CCOCC3)c2)cc1`, for which the cell number change stood at 19.6%. In addition, the AC50 under setting [2] was 0.00461 µM [rising, full curve, poor fit].
In the case of `C/C(=N\NC(=O)c1ccc2c(c1)OCO2)c1ccc(O)cc1`, the cell number change was -7.66%. Moreover, the AC50 under setting [1] was 6.51 µM [falling, single point].
Turning to `N#C/C(=C\c1cn(CCOc2ccccc2F)c2ccccc12)C(=O)NCc1cccs1`, the cell number change was 4.49%. Also, under setting [1], the AC50 is 1.03 µM [rising, full curve, poor fit].
For the compound `CSc1nnc(NC(=O)c2ccc(C)c(S(=O)(=O)N3CCOCC3)c2)s1`, the cell number change is -8.89%. In addition, the AC50 under setting [1] was 3.66 µM [falling, single point].
For the compound `CCN1CC=C2C(C#N)=C(N)C(C#N)(C#N)C(CCc3ccccc3)C2C1` (stereo not drawn), the cell number change was -6.29%. Further, under setting [1], the AC50 is 0.103 µM [rising, full curve, poor fit].
`COc1ccccc1CN1CCC(CNS(=O)(=O)c2cc(-c3cc(C)no3)ccc2C)CC1`: the cell number change came to 19.9%. In addition, under setting [1], the AC50 was 14.6 µM [rising, partial curve].
`N#Cc1cc(-c2cccc(Cl)c2)c[nH]c1=O`: the cell number change is -51.6%. Besides, under setting [2], the concentration at half-maximal activity (AC50) was 29.1 µM [falling, single point]. Further, the AC50 under setting [1] was 25.9 µM [falling, single point].
In the case of `C=CCSc1nc(Cc2ccc(Cl)cc2)nc2ccccc12`, the cell number change is -14%.
Take `CC(C)[C@H](NC(=O)N1CCn2c1nc1ccccc12)C(=O)NC1CC1`: the AC50 under setting [1] was 29.1 µM [rising, single point].
`CC1(C)Cc2nc3oc4c(SCC(N)=O)ncnc4c3cc2CO1`: the cell number change is -10.1%.
As for `CC(C)(C)NC(=O)CN(Cc1ccc2c(c1)OCO2)C(=O)CNC(=O)c1cccs1`, the cell number change was -55.7%. Moreover, the AC50 under setting [2] was 18.4 µM [falling, single point]. Also, under setting [1], the AC50 was 23.1 µM [falling, partial curve, poor fit].
Consider `O=C(c1cccs1)N(Cc1ccco1)Cc1cc2ccccc2[nH]c1=O`, for which the cell number change is -26.3%. For the same compound, the half-maximal activity concentration (AC50) under setting [2] is 0.82 µM [falling, full curve]. The AC50 under setting [1] was 0.0517 µM [falling, full curve, poor fit].
`COc1ccc(OC)c(S(=O)(=O)NC(C)c2ccc(-n3ccnc3)cc2)c1` (stereo not drawn): the cell number change is -47.2%. Further, under setting [2], the AC50 is 29.1 µM [falling, single point]. Under setting [1], the concentration at half-maximal activity (AC50) was 25.9 µM [falling, partial curve].
On to `Cc1cc(=O)[nH]c(N/N=C/c2ccc(C)o2)n1`, for which the cell number change stood at 33%. Under setting [2], the AC50 was 23.1 µM [rising, single point]. Further, the AC50 under setting [1] is 23.1 µM [rising, single point].
Regarding `Cc1sc2ncn(-n3c(C)ccc3C)c(=O)c2c1C`, the cell number change is 0.13%. In addition, under setting [1], the AC50 was 3.26 µM [falling, single point].
For `COc1ccc(C(=O)c2c3ccccc3[n+]([O-])n2Cc2ccc(C(N)=O)cc2)cc1`, the cell number change was -14%. The AC50 under setting [1] is 6.51 µM [falling, single point].
Take `CC(=O)N1c2ccc(S(=O)(=O)N3CCCC3)cc2CC1C(=O)NC(C)C` (stereo not drawn): the cell number change amounted to 16.1%. For the same compound, the AC50 under setting [1] was 29.1 µM [rising, single point].
Turning to `O=C(NCc1ccccc1)C1(CC2CC(c3ccccc3)=NO2)CCNCC1` (stereo not drawn), the cell number change is -11.6%. The AC50 under setting [1] was 0.116 µM [rising, single point].
For the compound `Cc1ccc(C2CC(c3cccs3)=NN2C(=O)c2ccc(Br)o2)cc1` (stereo not drawn), the cell number change was -12.4%. Further, the AC50 under setting [1] was 29.1 µM [falling, single point].
For `O=C(Nc1nnc(-c2ccc(Br)cc2)o1)c1cccc(N2C(=O)CCC2=O)c1`, the AC50 under setting [1] is 0.00651 µM [rising, full curve, poor fit].
Turning to `Cc1ccc(C2C(C#N)=C(N)SC(N)=C2C#N)o1`, the cell number change was -3.7%.
Turning to `COc1cccc(-c2nc(CS(=O)(=O)CC(=O)NCCc3ccccc3)c(C)o2)c1`, the cell number change worked out at 30.3%. The AC50 under setting [2] was 0.231 µM [rising, full curve, poor fit].
For `CCN(CC)C(=O)C(Sc1ccccc1)c1ccccc1` (stereo not drawn), the cell number change is -16.2%. The AC50 under setting [2] is 0.731 µM [falling, full curve]. Also, under setting [1], the AC50 was 3.26 µM [falling, full curve].
For `CCCC(=O)Nc1ccc(C(=O)Nc2cccc(OC)c2)cc1`, the cell number change is 5.19%. In addition, the AC50 under setting [1] was 0.731 µM [falling, single point].
Turning to `COc1ccc(-c2cc(C)no2)cc1S(=O)(=O)Nc1ccc(NC(C)=O)cc1`, the cell number change was -39.8%. Further, the AC50 under setting [2] was 0.146 µM [falling, full curve, poor fit]. Also, under setting [1], the AC50 is 0.58 µM [falling, single point].
Take `NC(=O)Cc1ccc2sc(-c3ccccc3)nc2c1`: the cell number change came to 0.706%. Moreover, the AC50 under setting [1] was 29.1 µM [rising, partial curve].
With `C/C(O)=C\c1nc(=O)c2c(C)cc(C)nc2n1-c1ccccc1`, the cell number change came out at 8.52%. Besides, the AC50 under setting [2] is 2.06 µM [rising, single point].
Turning to `CC(=O)NCCNC(=O)C1CCCCN1S(=O)(=O)c1ccccc1` (stereo not drawn), the cell number change is -111%. Also, the AC50 under setting [2] was 29.1 µM [falling, single point].
As for `O=C(CSc1nnc(-c2ccccc2F)o1)OCc1ccccc1`, the cell number change was -22.7%. For the same compound, the AC50 under setting [1] was 0.184 µM [falling, full curve].
Turning to `CCCSc1nc2c(cnn2-c2ccc(Cl)cc2)c(=O)[nH]1`, under setting [1], the AC50 is 1.03 µM [rising, full curve].
With `Cc1cc(NC(=O)Cn2nnc(-c3ccccc3N)n2)no1`, the cell number change was 4.61%. In addition, the AC50 under setting [1] was 29.1 µM [rising, single point].
For the compound `Cc1ccc(NC(=O)C(Nc2cccc(C)c2)c2ccccc2)cc1` (stereo not drawn), under setting [1], the AC50 was 1.46 µM [rising, partial curve, poor fit].
For `Cc1c(N(C(=O)c2cc(=O)[nH]c3ccccc23)C(C)C)c(=O)n(-c2ccccc2)n1C`, the cell number change was -25%. The AC50 under setting [1] is 0.00651 µM [falling, full curve, poor fit].
`O=C(CSc1nnc(CNc2ccc(F)cc2)o1)OC1CCCCC1`: the cell number change is -4.75%.
As for `COC1(c2cc(-c3ccccc3)nc(N)n2)CCCCC1`, the cell number change stood at 22.7%. The AC50 under setting [2] was 0.0058 µM [rising, full curve, poor fit]. Further, under setting [1], the AC50 was 29.1 µM [rising, single point].
Regarding `c1ccc2c(-c3nc4ncccc4o3)cccc2c1`, the cell number change turned out to be 0.919%. Also, under setting [1], the AC50 is 6.51 µM [rising, partial curve, poor fit].
Regarding `O=C(Nc1cccnc1)OC1CCCCC1`, the cell number change was 42.1%. Also, the AC50 under setting [2] is 3.66 µM [rising, full curve].
Turning to `O=C(NNC(=O)c1cccs1)c1ccc(Br)cc1`, the cell number change came out at 8.26%.
With `Cc1ccc(NC(=O)C(C)N2C(=O)c3ccccc3C2=O)nc1` (stereo not drawn), the cell number change was -5.88%. Also, the AC50 under setting [2] is 0.58 µM [falling, full curve]. In addition, the AC50 under setting [1] was 4.11 µM [falling, partial curve].
In the case of `Cc1ccc(C(C(=O)NC2CCCC2)N(Cc2ccccc2)C(=O)c2csnn2)o1` (stereo not drawn), the cell number change was -32.4%. For the same compound, under setting [2], the AC50 is 23.1 µM [falling, single point].
In the case of `N#Cc1ccc(COc2ccc(CCO)cc2-n2nc3ccccc3n2)cc1`, the cell number change was determined as 0.0678%.
Turning to `Cc1cccc(NC(=O)Cn2c(=O)n(CCc3c[nH]c4ccccc34)c(=O)c3cccnc32)c1`, the cell number change was -15%. Further, the AC50 under setting [1] is 0.58 µM [rising, full curve].
With `CSCC[C@@H](C(=O)O)N1Cc2ccccc2C1=O`, the cell number change was found to be 22.5%.
With `O=C(Nc1cccc(O)c1)c1cnn2cccnc12`, the cell number change was found to be 58.7%.
As for `CCOc1ccc(-c2cc(C(=O)NN)[nH]n2)cc1`, the cell number change is -3.61%. The AC50 under setting [1] is 1.84 µM [rising, full curve].
Consider `COc1ccc(S(=O)(=O)N(CC(=O)O)c2ccccc2)cc1`, for which the cell number change is -27.7%. Under setting [1], the AC50 is 0.116 µM [falling, full curve, poor fit].
With `CCCn1cnc2cc(NCc3cccc(OC)c3O)ccc21`, the cell number change is -22.2%. The AC50 under setting [2] was 0.116 µM [falling, full curve, poor fit]. Moreover, the AC50 under setting [1] is 0.00651 µM [falling, full curve, poor fit].
On to `COc1ccc(OCC(O)CNC(=O)Nc2ccc(F)cc2)cc1` (stereo not drawn), for which the cell number change is -13.1%. In addition, the AC50 under setting [1] was 25.9 µM [falling, single point].
For `Cc1ccccc1CC1(CO)CCCN(C(=O)CCC(F)(F)F)C1` (stereo not drawn), under setting [1], the AC50 was 6.51 µM [falling, single point].
In the case of `O=C(O)c1cccc(-c2noc(-c3cccc(Cl)c3)n2)c1`, the cell number change was -0.906%.
`COc1ccccc1CNc1ccc(C(=O)O)cc1`: the cell number change is 2.53%.
In the case of `CCOC(=O)N1CCN(C2CC(=O)N(c3ccc(C)cc3)C2=O)CC1` (stereo not drawn), the cell number change was 5.86%.
`Cc1ccc(C)c(OCCCCN2CCCCC2)c1`: the cell number change is -10.5%.
As to `Cc1c(Cl)ccc2c1NC(=O)[C@]21N[C@@H](CCC(N)=O)[C@H]2C(=O)N(c3ccc(F)cc3)C(=O)[C@H]21`, the cell number change came to 2.74%. Under setting [2], the half-maximal activity concentration (AC50) is 4.11 µM [falling, single point]. For the same compound, the AC50 under setting [1] was 6.51 µM [falling, single point].
As for `C=CCn1c(N)cc(=O)nc1SCC(=O)Nc1ccccc1`, the cell number change turned out to be 6.87%. The AC50 under setting [1] was 0.58 µM [falling, full curve].
On to `O=C(COC(=O)COc1cccc(Br)c1)Nc1ccc(F)cc1F`, for which the cell number change was 6.97%. In addition, the concentration at half-maximal activity (AC50) under setting [1] is 7.31 µM [falling, single point].
As to `NC(=O)CSc1nccn1Cc1ccc(Cl)cc1`, the cell number change was -8.62%. Besides, the AC50 under setting [2] was 0.461 µM [falling, full curve, poor fit]. Moreover, the AC50 under setting [1] is 0.651 µM [falling, full curve].
In the case of `O=C(O)c1cc(N/N=C/c2ccc(N3CCOCC3)s2)ccc1Cl`, the cell number change was -50%. For the same compound, under setting [2], the AC50 is 32.6 µM [falling, partial curve, poor fit].
